# From PubChem BioAssay AID977630 (Broad Institute, 2014)
# Among all 1,600 compounds or so, fewer than 10 were called active. Another 48% or so got no clear call; they are omitted.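 How the source made its calls: active means Normal-ribosome green reporter loss at least double humanized-ribosome red reporter loss, with overall culture growth inhibition under a set limit; inconclusive means no clear call, values can overlap the other calls; inactive means the rest.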 The entries are a selection whose mix differs from that of the whole data set. Measured potencies and affinities stand elsewhere.
# Test: E. coli growth inhibition, wild-type GFP versus H38 humanized RFP strain – H38 mutant RFP vs wild-type GFP, cherry-pick, dose response (AID 977630)
# Conditions: mixed culture, 24 h; at 50 µM (top of the series)
row,SMILES,"activity change, negative = inhibition"
1,Nc1c(C(=O)NCCN2CCOCC2)c2nc3ccccc3nc2n1Cc1ccccc1,inactive: -6.3
2,O=C1CC(=O)N(Cc2ccccc2)C(=O)N1CCCCCCN1C(=O)CC(=O)N(Cc2ccccc2)C1=O,inactive: 7.35
